Results taken from patent publication US20170296524A1.
Results are given in words; binding and its absence hold for the method and conditions named. Binding seen in cells or lysates may run through a third protein. These calls come from enrichment with a bait or labelling near it, and not all partners need be listed. Where a sequence is shown, tags or fusion partners need not be part of it.

What was measured:
[1] = target: T1, MCT1 (monocarboxylate transporter 1), endogenous (human), P53985; experiment: tandem affinity purification (Strep, then Flag) from HEK 293T cells, mass spectrometry; settings: remark: other sources report otherwise
T1 chain: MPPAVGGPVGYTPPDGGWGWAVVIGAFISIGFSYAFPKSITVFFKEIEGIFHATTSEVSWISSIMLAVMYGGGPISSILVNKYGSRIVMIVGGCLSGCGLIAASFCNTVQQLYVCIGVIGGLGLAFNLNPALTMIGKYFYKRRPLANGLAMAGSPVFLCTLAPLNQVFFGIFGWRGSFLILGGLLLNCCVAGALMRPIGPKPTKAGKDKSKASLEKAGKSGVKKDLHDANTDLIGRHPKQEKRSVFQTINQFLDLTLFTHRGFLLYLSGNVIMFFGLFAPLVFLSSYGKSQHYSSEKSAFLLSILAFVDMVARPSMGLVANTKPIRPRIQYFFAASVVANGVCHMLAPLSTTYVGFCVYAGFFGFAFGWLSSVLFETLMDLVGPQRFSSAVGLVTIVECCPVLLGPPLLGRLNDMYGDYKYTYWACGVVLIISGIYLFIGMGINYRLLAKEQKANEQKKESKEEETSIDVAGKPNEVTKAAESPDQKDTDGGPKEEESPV

[2] = target: T1, MCT1 (monocarboxylate transporter 1), …; experiment: tandem affinity purification, mass spectrometry; settings: remark: other sources report otherwise

B1: Strep-Flag tagged CRBN (CRBN-SF), Q96SW2 1-442 (protein, human, UniProt Q96SW2 1-442, looked up, not shown: small tags and cut ends)
chain: MAGEGDQQDAAHNMGNHLPLLPAESEEEDEMEVEDQDSKEAKKPNIINFDTSLPTSHTYLGADMEEFHGRTLHDDDSCQVIPVLPQVMMILIPGQTLPLQLFHPQEVSMVRNLIQKDRTFAVLAYSNVQEREAQFGTTAEIYAYREEQDFGIEIVKVKAIGRQRFKVLELRTQSDGIQQAKVQILPECVLPSTMSAVQLESLNKCQIFPSKPVSREDQCSYKWWQKYQKRKFHCANLTSWPRWLYSLYDAETLMDRIKKQLREWDENLKDDSLPSNPIDFSYRVAACLPIDDVLRIQLLKIGSAIQRLRCELDIMNKCTSLCCKQCQETEITTKNEIFSLSLCGPMAAYVNPHGYVHETLTVYKACNLNLIGRPSTEHSWFPGYAWTVAQCKICASHIGWKFTATKKDMSPQKFWGLTRSALLPTIPDTEDEISPDKVILCL
[1]
  binding: binds
[2]
  binding: binds
